Assay results from PMC11984401.
No constants are given. Whether binding was seen depends on the method and setting. In cells and extracts the contact can be indirect. Some binding calls cover weakened binding; strength is not graded here. Tags and fused reporters may be left off the sequences shown.

Legend:
[1] = molecular target: T1, C-terminal FLAG-tagged AMBP (alpha-1-microglobulin/bikunin precursor) (UniProt P02760); experiment: co-IP; HEK293T transfected with Flag-tagged AMBP plasmid for 48 h; non-denaturing lysis buffer; Flag antibodies on protein A/G magnetic beads, lysate overnight at 4 °C, four washes with PBS 0.5% Tween-20; immunoblot for FHL3, CTSB and PIK3CA
T1 sequence: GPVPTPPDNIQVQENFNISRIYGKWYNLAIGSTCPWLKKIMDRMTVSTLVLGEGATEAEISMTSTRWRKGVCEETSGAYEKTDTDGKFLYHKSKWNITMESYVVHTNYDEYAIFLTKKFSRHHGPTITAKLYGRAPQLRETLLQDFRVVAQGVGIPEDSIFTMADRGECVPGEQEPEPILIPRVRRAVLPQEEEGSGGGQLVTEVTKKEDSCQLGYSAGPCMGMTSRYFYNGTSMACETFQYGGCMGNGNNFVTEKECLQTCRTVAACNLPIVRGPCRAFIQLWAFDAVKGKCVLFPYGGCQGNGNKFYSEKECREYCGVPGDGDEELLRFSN

[2] = molecular target: T2, four-and-a-half LIM domain protein 3 (FHL3), endogenous in primary human VICs (human (endogenous in primary human VICs)) (UniProt Q13643); experiment: co-IP; primary VICs transfected with Ad-AMBP or Ad-NC for 48 h, then OM for 10 min; lysates precipitated with FHL3 antibodies; immunoblot for P-JNK and P-ERK1/2
T2 sequence: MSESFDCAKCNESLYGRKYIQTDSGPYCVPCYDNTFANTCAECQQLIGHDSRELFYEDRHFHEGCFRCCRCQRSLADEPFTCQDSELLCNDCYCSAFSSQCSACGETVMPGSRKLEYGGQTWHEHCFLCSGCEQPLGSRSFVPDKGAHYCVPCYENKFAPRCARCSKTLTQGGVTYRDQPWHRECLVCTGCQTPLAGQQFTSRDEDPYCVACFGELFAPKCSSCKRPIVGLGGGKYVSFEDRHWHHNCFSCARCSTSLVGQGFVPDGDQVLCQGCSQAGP

[3] = molecular target: T1, C-terminal FLAG-tagged AMBP (alpha-1-microglobulin/bikunin precursor); experiment: co-IP; HEK293T co-transfected with AMBP-Flag and full-length or truncated FHL3-HA plasmids for 48 h; lysates precipitated with Flag antibodies; immunoblot with HA antibodies

B1: four-and-a-half LIM domain protein 3 (FHL3), endogenous in HEK293T (protein, UniProt Q13643 1-280)
chain: T2 sequence
- binding [1]: binds

B2: AMBP overexpressed from adenovirus (Ad-AMBP) in VICs (protein, UniProt P02760 20-352)
chain: T1 sequence
- binding [2]: binds

B3: full-length FHL3 with a C-terminal HA tag (protein, UniProt Q13643 1-280)
chain: T2 sequence
- binding [3]: binds
